Values of other authors in patent US20200215024A1, “CANNABINOID FORMULATIONS FOR TREATING ALCOHOL HANGOVER” (Replennabis LLC, priority 2019, published 2020).
Some entries share one result that the patent states for a list of compounds.

Conditions: in vivo

## C=C(C)[C@@H]1CCC(C)=C[C@H]1c1c(O)cc(CCCCC)cc1O [CBD, cannabidiol]
  oral bioavailability: less than 8%
